Results published in article doi:10.1101/2021.11.11.468194.
These are yes or no findings as the source states them, for the method shown. Binding seen in cells or lysates may run through a third protein. Some entries that bind do so weakly or less than the wild type. Where a sequence is shown, tags or fusion partners need not be part of it.

T1: glutathione S-transferase (GST)-tagged Appl1-N (mouse) (UniProt Q8K3H0)
T1 sequence: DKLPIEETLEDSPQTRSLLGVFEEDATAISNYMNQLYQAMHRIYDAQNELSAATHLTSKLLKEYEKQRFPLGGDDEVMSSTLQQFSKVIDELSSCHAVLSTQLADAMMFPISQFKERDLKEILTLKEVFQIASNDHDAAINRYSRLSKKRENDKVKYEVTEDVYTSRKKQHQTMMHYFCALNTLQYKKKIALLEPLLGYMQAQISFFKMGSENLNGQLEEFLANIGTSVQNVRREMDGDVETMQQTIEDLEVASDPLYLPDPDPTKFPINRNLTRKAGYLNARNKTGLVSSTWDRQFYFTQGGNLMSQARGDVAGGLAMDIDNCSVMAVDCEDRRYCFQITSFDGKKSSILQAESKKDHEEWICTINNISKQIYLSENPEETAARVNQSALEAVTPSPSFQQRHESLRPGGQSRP


Legend:
T7-tagged TBC1D18 = T7-tagged TBC1D18 (UniProt Q5R372); assay: co-IP
[1] = biological target: T1, glutathione S-transferase (GST)-tagged Appl1-N (mouse); assay: pull-down

| binding (T7-tagged TBC1D18) | binding [1] | Binder |
| --- | --- | --- |
| binds | – | FLAG-tagged Mon1a (protein, UniProt Q6PDG8 1-556) MAADMQRKRSSECPEGTLAPSNGQSVERAESPTPGLTQGTEPGAGQEGAMFVHTRSYEDLTELEDREASGDSPKECVGSPPPLATDMRQISQDFSELSTQLTGVARDLQEEMLPGSSEDWPEPQGAAGRGAATEPSQEGSTEGEEEDATEAWRLHQKHVFVLSEAGKPVYSRYGSEEALSSTMGVMVALVSFLEADKNAIRSIHADGYKVVFVRRSPLVLVAVARTRQSAQELAQELLYIYYQILSLLTGAQLSHIFQQKQNYDLRRLLSGSERITDNLLQLMARDPSFLMGAARCLPLAAAVRDTVSASLQQARARSLVFSILLAHNQLVALVRRKDQFLHPIDLHLLFNLISSSSSFREGEAWTPVCLPKFNAAGFFHAHISYLEPDTDLCLLLISTDREDFFAVSDCRRRFQERLRKRGTHLALREALRTPYYSVAQVGIPDLRHFLYKSKSSGLFTSPEIEAPYSSEEEQERLLGLYQYLHSRAHNASRPLKTIYYTGPNENLLAWVTGAFELYMCYSPLGTKASAVSAIHKLMRWIRKEEDRLFILTPLTY |
| binds | – | FLAG-tagged Mon1b (protein, UniProt Q8BMQ8 1-553) MEAGGDNAVPAPGGVEDLVDTQFPREEAGDSERVHASTLDPGDGDPEDTGSKDQPSSLLSPLPQTEAASSTCEHWETAAASDSSPPGEPESNSEGQGEDPDDGGDPSDEDWRSQRKHVFVLSEAGKPIYSRYGSVEALSATMGVMTALVSFVQSAGDAIRAIYAEDHKLVFLQQGPLLLVAVSRTPQSAAQLRGELLAVHAQIVSTLTRASVARIFAHKQNYDLRRLLAGSERTLDRLLDSVEQDPGALLLGAVRCVPLARPLRDALGTLLRRCTAPGLALSVLAVGGRLITVAQERNVLAECRLDPADLQLLLDWVGAPAFAAGEAWAPVCLPRFNPDGFFYAYVARLDSMPVCLLLLGTNREAFHAMAACRRLVEDGMHNLGALRTLGEAANFSNGPAASAPAYSVQAVGAPGLRHFLYKPLDIPEQHRQLPQFTSPELEAPYSREEERQRLSDLYHRLHARLHSTSRPLRLIYHVAEKETLLAWVTSKFELYTCLSPLVTKAGAILVVTKLLRWVRKEEDRLFIRYPPKYSTPPSTSADQAPNNGLFTGL |
| – | binds | Rab5 (active, GTP-bound) (protein, UniProt P18066 1-215) MANRGATRPNGPNTGNKICQFKLVLLGESAVGKSSLVLRFVKGQFHEFQESTIGAAFLTQTVCLDDTTVKFEIWDTAGQERYHSLAPMYYRGAQAAIVVYDITNEESFARAKNWVKELQRQASPNIVIALSGNKADLANKRAVDFQEAQSYADDNSLLFMETSAKTSMNVNEIFMAIAKKLPKNEPQNPGANSARGRGVDLTEPTQPTRSQCCSN |
